Values quoted from earlier work, collected in publication PMC6923452, “SHBG141–161 Domain-Peptide Stimulates GPRC6A-Mediated Response in Leydig and β-Langerhans cell lines” (Scientific Reports, 2019).

System: GPRC6A
Parameters: method as in 2 sources, ref 5 = [5]; PMID 15576628; doi:10.1124/mol.104.007559; 5. Wellendorph P Deorphanization of GPRC6A: a promiscuous L-alpha-amino acid receptor with preference for basic amino acids Molecular Pharmacology 2005 67 3 589 97 10.1124/mol.104.007559 15576628 ||| ref 6 = [6]; PMID 20947496; doi:10.1074/jbc.M110.158063; 6. Pi M Parrill AL Quarles LD GPRC6A mediates the non-genomic effects of steroids Journal of Biological Chemistry 2010 285 51 39953 64 10.1074/jbc.M110.158063 20947496 PMC3000977
Details: cited from earlier work

NCCC[C@H](N)C(=O)O [L-ornithine]
activation of GPRC6A: activated
